The text below walks through data of the supplement of paper PMC10849652.

Protein sequences, listed by entry. Tags and fused reporters are not part of them. Lines headed by an entry give the natural chain unless they say otherwise; changes in a name come on top.
UniProt Q86VP1, whole entry, looked up: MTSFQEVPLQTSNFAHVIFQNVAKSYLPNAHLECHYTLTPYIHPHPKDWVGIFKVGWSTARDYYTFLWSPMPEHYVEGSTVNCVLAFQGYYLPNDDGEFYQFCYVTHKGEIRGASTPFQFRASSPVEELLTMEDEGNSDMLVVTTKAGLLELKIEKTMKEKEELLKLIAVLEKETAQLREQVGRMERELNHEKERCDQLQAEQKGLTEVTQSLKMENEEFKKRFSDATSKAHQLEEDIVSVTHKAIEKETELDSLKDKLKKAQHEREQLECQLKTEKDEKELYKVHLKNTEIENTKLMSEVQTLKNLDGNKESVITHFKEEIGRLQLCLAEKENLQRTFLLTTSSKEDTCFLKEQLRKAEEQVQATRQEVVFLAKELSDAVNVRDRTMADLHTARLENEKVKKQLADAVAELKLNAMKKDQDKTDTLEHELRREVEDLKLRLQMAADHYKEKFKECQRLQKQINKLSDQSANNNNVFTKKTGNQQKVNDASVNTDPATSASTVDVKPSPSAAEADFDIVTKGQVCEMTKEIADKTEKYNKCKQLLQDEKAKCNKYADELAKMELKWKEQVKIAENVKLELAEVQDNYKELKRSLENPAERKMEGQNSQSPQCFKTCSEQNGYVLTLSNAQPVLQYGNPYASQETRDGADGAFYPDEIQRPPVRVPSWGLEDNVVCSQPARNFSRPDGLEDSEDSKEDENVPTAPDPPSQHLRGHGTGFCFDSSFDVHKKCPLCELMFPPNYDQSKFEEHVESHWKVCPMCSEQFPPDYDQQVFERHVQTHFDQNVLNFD
UniProt P15923: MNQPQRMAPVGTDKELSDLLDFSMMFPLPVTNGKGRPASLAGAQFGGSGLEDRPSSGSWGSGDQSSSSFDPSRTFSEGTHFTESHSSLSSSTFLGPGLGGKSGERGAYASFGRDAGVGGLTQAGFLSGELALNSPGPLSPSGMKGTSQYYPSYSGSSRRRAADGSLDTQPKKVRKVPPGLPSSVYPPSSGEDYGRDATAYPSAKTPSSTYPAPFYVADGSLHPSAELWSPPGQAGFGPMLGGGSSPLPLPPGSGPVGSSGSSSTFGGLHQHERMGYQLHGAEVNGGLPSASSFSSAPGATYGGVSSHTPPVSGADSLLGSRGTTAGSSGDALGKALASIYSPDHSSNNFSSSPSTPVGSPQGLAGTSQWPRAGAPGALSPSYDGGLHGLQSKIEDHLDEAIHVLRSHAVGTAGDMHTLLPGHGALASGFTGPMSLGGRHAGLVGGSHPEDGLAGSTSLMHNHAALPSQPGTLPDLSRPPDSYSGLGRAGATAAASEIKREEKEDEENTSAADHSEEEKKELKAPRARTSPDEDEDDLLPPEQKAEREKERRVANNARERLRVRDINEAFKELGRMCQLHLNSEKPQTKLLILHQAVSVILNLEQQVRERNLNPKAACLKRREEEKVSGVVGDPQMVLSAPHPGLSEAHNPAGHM
UniProt P20226, whole entry, looked up: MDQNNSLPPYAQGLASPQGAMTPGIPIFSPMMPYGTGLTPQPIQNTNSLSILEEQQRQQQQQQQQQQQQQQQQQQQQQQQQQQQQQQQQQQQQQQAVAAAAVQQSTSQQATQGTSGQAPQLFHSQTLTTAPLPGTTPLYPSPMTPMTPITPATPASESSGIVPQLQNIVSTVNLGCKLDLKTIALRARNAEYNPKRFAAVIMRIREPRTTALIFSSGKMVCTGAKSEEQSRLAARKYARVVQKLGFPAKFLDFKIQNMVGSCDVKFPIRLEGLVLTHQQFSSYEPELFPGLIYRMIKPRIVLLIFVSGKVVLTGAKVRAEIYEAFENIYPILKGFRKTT
UniProt Q13428: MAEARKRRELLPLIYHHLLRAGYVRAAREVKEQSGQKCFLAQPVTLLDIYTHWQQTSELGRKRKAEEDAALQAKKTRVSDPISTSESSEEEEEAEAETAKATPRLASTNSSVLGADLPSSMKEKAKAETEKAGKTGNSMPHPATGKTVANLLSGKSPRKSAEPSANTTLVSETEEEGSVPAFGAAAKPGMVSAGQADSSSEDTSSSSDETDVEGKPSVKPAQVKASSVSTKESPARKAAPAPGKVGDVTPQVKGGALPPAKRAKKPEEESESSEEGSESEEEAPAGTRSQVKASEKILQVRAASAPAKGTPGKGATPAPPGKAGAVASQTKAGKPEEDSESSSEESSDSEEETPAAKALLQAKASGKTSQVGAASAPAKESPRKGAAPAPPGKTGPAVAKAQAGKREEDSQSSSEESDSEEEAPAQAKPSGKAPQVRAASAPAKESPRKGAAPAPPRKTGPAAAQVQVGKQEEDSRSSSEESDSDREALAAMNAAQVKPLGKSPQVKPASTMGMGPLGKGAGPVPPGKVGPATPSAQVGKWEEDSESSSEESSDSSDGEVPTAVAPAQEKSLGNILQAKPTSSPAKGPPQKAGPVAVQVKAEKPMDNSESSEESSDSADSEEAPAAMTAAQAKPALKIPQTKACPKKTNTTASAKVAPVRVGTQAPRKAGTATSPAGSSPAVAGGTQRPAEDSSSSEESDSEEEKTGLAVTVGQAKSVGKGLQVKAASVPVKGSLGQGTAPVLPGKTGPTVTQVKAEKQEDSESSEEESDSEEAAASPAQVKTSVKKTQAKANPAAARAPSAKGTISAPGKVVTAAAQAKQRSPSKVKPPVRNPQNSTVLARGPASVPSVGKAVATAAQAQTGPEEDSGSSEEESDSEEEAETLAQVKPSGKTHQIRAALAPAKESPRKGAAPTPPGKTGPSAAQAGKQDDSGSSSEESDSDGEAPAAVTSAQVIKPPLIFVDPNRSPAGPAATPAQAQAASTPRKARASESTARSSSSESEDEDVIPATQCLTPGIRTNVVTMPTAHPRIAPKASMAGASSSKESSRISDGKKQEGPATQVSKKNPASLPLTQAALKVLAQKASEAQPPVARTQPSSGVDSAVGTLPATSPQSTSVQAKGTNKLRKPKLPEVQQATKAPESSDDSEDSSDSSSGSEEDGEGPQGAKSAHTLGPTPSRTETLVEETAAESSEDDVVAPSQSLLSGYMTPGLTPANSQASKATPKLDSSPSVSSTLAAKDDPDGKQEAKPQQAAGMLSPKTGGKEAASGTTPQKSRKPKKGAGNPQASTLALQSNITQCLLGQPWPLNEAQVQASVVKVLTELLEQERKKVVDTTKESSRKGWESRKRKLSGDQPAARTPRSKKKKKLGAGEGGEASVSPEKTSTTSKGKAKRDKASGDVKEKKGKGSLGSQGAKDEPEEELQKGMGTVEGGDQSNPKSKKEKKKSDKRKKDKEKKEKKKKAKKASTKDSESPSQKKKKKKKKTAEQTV
UniProt Q9UGU0: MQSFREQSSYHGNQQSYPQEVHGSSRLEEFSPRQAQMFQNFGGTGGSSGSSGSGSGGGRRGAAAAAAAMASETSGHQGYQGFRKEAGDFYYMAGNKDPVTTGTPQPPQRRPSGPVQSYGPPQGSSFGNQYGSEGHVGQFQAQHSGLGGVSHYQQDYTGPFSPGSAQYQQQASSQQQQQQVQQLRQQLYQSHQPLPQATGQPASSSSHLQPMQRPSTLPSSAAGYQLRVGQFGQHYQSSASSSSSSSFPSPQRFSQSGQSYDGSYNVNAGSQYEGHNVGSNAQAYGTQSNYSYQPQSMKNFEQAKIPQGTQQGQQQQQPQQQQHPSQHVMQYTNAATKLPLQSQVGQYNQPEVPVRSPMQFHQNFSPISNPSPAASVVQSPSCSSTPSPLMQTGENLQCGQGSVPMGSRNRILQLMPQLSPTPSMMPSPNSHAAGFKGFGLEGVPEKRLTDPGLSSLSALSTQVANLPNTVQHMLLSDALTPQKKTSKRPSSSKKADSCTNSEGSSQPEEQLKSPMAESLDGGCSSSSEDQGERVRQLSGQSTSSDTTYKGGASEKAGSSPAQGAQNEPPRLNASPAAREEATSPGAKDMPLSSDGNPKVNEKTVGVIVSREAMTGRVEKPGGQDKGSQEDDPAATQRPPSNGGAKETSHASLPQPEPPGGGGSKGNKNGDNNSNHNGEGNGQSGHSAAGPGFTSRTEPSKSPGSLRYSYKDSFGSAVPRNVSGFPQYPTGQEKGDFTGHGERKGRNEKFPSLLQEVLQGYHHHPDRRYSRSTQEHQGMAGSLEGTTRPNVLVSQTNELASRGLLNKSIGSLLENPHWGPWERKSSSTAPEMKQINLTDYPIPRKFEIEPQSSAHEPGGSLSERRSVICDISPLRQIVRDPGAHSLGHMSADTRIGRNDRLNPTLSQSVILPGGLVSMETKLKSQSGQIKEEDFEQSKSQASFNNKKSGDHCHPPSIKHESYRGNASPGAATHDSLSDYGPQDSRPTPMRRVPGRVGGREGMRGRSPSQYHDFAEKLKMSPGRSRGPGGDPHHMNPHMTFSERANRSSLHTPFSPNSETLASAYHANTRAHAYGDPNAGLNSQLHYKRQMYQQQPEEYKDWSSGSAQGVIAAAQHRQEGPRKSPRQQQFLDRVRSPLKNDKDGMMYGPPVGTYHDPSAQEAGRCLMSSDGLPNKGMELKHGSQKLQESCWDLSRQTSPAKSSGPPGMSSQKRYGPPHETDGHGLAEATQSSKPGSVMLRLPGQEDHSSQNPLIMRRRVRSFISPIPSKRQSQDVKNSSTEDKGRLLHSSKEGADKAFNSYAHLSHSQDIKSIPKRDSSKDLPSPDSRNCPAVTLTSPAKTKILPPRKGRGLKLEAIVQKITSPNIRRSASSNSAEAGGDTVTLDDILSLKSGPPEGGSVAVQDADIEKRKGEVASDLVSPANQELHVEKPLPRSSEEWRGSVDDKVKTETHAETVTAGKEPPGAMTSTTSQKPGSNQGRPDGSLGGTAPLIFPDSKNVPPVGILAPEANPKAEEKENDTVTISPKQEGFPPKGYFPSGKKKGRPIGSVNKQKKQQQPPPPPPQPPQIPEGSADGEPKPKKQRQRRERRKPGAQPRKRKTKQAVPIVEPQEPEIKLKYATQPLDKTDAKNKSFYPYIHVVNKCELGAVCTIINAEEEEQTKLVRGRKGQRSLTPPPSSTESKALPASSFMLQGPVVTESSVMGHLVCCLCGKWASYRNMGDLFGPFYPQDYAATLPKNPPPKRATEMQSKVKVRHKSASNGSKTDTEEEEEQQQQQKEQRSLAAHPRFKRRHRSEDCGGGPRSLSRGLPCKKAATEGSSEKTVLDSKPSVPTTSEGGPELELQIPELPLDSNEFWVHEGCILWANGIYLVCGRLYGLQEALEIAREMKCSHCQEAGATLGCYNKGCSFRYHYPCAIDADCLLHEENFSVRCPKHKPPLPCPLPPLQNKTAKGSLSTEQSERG
UniProt P20061: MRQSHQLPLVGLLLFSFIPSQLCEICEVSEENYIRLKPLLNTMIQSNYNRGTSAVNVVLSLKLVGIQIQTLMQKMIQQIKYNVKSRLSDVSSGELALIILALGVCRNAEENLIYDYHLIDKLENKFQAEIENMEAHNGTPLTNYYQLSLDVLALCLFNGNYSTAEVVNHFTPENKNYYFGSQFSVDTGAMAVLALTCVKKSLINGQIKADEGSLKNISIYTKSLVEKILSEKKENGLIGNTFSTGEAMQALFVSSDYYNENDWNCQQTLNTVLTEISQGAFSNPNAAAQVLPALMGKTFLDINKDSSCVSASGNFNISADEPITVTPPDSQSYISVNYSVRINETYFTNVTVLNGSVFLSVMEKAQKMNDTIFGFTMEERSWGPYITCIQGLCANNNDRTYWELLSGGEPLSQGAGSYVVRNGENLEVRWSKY
UniProt Q86SX3: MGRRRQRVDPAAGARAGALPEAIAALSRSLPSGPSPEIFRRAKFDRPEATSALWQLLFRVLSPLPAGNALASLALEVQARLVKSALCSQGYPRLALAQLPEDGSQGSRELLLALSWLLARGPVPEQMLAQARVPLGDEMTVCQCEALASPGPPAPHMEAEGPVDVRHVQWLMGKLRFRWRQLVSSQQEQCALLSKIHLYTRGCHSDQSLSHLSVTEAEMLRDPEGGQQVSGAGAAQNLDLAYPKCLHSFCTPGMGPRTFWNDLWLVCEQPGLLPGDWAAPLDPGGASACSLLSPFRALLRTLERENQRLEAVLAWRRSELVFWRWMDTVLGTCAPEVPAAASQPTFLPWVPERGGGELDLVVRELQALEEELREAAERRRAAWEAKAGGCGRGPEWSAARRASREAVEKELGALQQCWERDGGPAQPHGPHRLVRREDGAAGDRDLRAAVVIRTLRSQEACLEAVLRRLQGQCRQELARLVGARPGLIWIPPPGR
UniProt P0C1Z6, whole entry, looked up: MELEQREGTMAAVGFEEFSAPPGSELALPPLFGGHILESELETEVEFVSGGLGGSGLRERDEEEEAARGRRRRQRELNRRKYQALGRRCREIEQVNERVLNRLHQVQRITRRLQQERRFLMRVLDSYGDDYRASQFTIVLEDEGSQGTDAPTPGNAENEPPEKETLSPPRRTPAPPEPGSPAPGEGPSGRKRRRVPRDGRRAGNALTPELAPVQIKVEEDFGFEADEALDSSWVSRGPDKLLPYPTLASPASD

The list shows a part of the results.

Compound in the first test: O=C(CCCCCCC(=O)Nc1ccccc1)NO [vorinostat]
As to the kind of experiment: log2 fold change, soluble protein after heating vs DMSO (PISA); higher = thermal stabilisation; K562 lysate, 10 uM; active = over 0.2 and 3.5 SD of the protein, either way, in both replicates (recomputed). A digest of the protocol: (§1)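 K562 pellets were dounce-homogenised in PBS pH 7.4 containing 1 mM MgCl2, and the crude extract, at 1 mg/mL protein, was exposed to 10 μM compound for 30 min. Aliquots were heated for 3 min across 48°C-58°C, pooled, brought to 0.5% NP-40 at 4°C and spun at 21,000xg for 90 min, with the supernatant taken as soluble protein. TMTpro 16plex LC-MS/MS with equalised channel sums quantified that protein. Values are log-two fold changes in thermal stability relative to solvent controls, taken from duplicates.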
Take TAX1BP1 isoform 2 (UniProt Q86VP1): the log2 fold change was inactive: 0.279.

With TCF3 isoform 2 (UniProt P15923), the log2 fold change was inactive: -0.196.

TBCA (UniProt E5RHG6): the log2 fold change is inactive: 0.006.

As for TBP (UniProt P20226), the log2 fold change was inactive: -0.156.

Regarding TBCCD1 (UniProt Q9NVR7), the log2 fold change was inactive: -0.201.

As to TCOF1 isoform 3 (UniProt Q13428), the log2 fold change is inactive: 0.184.

With TASP1 (UniProt Q9H6P5), the log2 fold change is active: 0.481.

Take TBCK (UniProt Q8TEA7): the log2 fold change is inactive: -0.048.

Compound in a further test: O=C(O)c1ccc2c(c1)nc(Nc1cccc(Cl)c1)c1ccncc12 [silmitasertib]
The description is as above. A digest of the protocol: as §1
As to TECPR1 isoform 4 (UniProt Q7Z6L1), the log2 fold change is inactive: 0.005.

Regarding TCF20 (UniProt Q9UGU0), the log2 fold change is inactive: 0.054.

As to TCN1 (UniProt P20061), the log2 fold change was inactive: -0.082.

Regarding TBXA2R (UniProt P21731), the log2 fold change is inactive: -0.049.

Take TCOF1 isoform 6 (UniProt Q13428): the log2 fold change is inactive: -0.052.

In the case of TEAD3 (UniProt Q99594), the log2 fold change is inactive: 0.

In the case of TBC1D10A (UniProt Q9BXI6), the log2 fold change was inactive: -0.036.

For the target TANC2 isoform 2 (UniProt Q9HCD6), the log2 fold change was inactive: -0.249.

As for TENT4B isoform 5 (UniProt Q8NDF8), the log2 fold change is inactive: -0.264.

Regarding TET2 (UniProt Q6N021), the log2 fold change was inactive: 0.046.

For TEDC1 (UniProt Q86SX3), the log2 fold change was inactive: 0.068.

As for TEAD4 (UniProt Q15561), the log2 fold change was inactive: -0.201.

Consider TFPT (UniProt P0C1Z6), for which the log2 fold change is inactive: -0.18.

For TAZ (UniProt Q16635), the log2 fold change was inactive: -0.304.
